Laboratory results published in PMC10404369, “Epithelial cell adhesion molecule (EpCAM) regulates HGFR signaling to promote colon cancer progression and metastasis” (Journal of Translational Medicine, 2023).
Results are given in words; binding and its absence hold for the method and conditions named. For some of these results: In cells and extracts the contact can be indirect. Some results given as binding are weak or reduced against the parent protein; the word gives no strength. For some of these results: Tags and fused reporters may be left off the sequences shown. Blank lines part the entries; values can stand above or below the molecule they belong to.

Sequences of proteins named here, by UniProt entry; tags and fusion partners are left off. A change or cut given only in a name is not applied to a line headed by its entry. A line that says so, or that is headed by a name, gives the form on record, which may keep a tag or linker. Residues count along the entry.
UniProt P08581: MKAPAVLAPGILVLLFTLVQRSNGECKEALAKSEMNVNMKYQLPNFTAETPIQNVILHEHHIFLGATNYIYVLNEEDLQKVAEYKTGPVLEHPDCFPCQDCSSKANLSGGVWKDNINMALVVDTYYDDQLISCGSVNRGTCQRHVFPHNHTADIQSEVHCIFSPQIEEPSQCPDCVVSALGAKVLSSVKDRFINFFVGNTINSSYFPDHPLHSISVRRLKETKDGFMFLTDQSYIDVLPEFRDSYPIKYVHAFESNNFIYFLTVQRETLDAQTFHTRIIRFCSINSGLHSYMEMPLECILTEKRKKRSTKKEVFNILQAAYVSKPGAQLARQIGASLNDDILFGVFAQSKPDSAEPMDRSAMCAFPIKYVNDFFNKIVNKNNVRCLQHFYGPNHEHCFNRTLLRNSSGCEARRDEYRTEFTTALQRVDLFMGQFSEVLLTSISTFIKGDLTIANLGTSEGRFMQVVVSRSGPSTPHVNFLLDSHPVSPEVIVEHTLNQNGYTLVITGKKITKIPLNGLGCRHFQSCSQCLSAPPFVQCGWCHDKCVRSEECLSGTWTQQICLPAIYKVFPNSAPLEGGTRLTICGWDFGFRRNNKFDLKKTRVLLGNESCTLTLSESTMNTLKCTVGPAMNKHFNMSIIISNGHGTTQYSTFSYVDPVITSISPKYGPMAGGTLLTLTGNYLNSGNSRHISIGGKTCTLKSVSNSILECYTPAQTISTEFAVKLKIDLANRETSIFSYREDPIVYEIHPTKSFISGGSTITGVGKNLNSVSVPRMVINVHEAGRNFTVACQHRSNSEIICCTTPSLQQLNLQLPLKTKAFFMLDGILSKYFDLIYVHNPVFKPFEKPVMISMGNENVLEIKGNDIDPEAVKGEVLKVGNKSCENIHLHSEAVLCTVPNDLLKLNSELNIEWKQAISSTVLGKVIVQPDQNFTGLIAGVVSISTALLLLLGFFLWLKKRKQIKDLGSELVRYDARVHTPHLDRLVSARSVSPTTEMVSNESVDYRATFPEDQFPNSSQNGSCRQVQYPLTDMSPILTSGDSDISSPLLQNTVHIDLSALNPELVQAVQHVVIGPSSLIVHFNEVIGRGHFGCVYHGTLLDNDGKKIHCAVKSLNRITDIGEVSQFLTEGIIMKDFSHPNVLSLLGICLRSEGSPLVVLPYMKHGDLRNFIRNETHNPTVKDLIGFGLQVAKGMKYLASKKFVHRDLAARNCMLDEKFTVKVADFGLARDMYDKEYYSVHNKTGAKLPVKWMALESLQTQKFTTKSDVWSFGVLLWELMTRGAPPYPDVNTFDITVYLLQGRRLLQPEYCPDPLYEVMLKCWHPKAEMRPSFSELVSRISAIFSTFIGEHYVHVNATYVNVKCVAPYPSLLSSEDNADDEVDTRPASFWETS
Hepatocyte growth factor receptor (HGFR), endogenous (human (endogenous in HCT116 and HT29)): residues 25-1390 of P08581
HGFRECD-c-Myc, extracellular domain of HGFR with c-Myc tag: residues 25-932 of P08581

Tests used:
[1] = biological target: T1, EpEX_(ΔEGFI+II)-Fc (human) (UniProt P16422); assay: ELISA; HGFR-His recombinant protein (2 μg/ml) added to plates coated with EGF-like-domain deletion mutant-Fc (1 μg/ml); TMB colorimetric peroxidase assay; both purified
T1 sequence: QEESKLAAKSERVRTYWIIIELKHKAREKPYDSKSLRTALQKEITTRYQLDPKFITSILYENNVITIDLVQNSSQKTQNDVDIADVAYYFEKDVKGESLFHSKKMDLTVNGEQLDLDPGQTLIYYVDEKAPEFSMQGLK

HGFR-Fc protein (human) = HGFR-Fc protein (human) (UniProt P08581); assay: ELISA; EpEX-His (2 μg/ml) co-treated with 1 μg IgG or EpAb2-6 added to HGFR-Fc-coated (1 μg/ml) plates; TMB colorimetric peroxidase assay; both purified
[2] = biological target: Hepatocyte growth factor receptor (HGFR), endogenous (human (endogenous in HCT116 and HT29)) (UniProt P08581); assay: FRET or BRET; TIRF microscopy with FRET on fixed HCT116 cells co-stained with HGFR (AF488, donor) and EpEX (AF568, acceptor) antibodies; also after 24 h treatment with NMIgG, MT201, EpAb2-6 or hEpAb2-6 (20 μg/ml)
[3] = biological target: HGFRECD-c-Myc, extracellular domain of HGFR with c-Myc tag (human) (UniProt P08581); assay: co-IP; HEK293T cells transfected with HGFRECD-c-Myc and EpEX-His (full-length or EGF-like-domain deletion mutants); IP with anti-c-Myc, Western blotting with anti-cMyc and anti-His
[4] = biological target: Hepatocyte growth factor receptor (HGFR), endogenous (human (endogenous in HCT116 and HT29)) (UniProt P08581); assay: co-IP; endogenous proteins; HCT116 cells treated with NMIgG or EpAb2-6 (20 μg/ml) for 24 h, IP with anti-EpCAM or anti-HGFR antibodies, Western blotting
[5] = biological target: Hepatocyte growth factor receptor (HGFR), endogenous (human (endogenous in HCT116 and HT29)) (UniProt P08581); assay: co-IP; endogenous proteins in HCT116 and HT29 cells; DTSSP cross-linker used to stabilise the complex; IP and Western blotting
[6] = biological target: HGFRECD-c-Myc, extracellular domain of HGFR with c-Myc tag (human) (UniProt P08581); assay: co-IP; HEK293T cells transfected with HGFRECD-c-Myc and EpCAM-V5 (full-length or EGF-like-domain deletion mutants); IP with anti-V5 or anti-c-Myc antibody, Western blotting

binding [1]: no binding (tested: 2 μg/ml)
Molecule: HGFRECD-His recombinant protein (from UniProt P08581 25-932) (domain or fragment)

binding [2]: binds
B2: Extracellular domain of EpCAM (EpEX), endogenous in HCT116 cells, stained with an EpEX antibody (domain or fragment, UniProt P16422 24-265)
chain: QEECVCENYKLAVNCFVNNNRQCQCTSVGAQNTVICSKLAAKCLVMKAEMNGSKLGRRAKPEGALQNNDGLYDPDCDESGLFKAKQCNGTSMCWCVNTAGVRRTDKDTEITCSERVRTYWIIIELKHKAREKPYDSKSLRTALQKEITTRYQLDPKFITSILYENNVITIDLVQNSSQKTQNDVDIADVAYYFEKDVKGESLFHSKKMDLTVNGEQLDLDPGQTLIYYVDEKAPEFSMQGLK

binding [6]: binds
B5: EpCAM-V5, full-length (protein, UniProt P16422 24-314)
chain: QEECVCENYKLAVNCFVNNNRQCQCTSVGAQNTVICSKLAAKCLVMKAEMNGSKLGRRAKPEGALQNNDGLYDPDCDESGLFKAKQCNGTSMCWCVNTAGVRRTDKDTEITCSERVRTYWIIIELKHKAREKPYDSKSLRTALQKEITTRYQLDPKFITSILYENNVITIDLVQNSSQKTQNDVDIADVAYYFEKDVKGESLFHSKKMDLTVNGEQLDLDPGQTLIYYVDEKAPEFSMQGLKAGVIAVIVVVVIAVVAGIVVLVISRKKRMAKYEKAEIKEMGEMHRELNA

Continued, molecule first:

B1: EpEX-His recombinant protein, purified (domain or fragment, UniProt P16422 24-265)
chain: QEECVCENYKLAVNCFVNNNRQCQCTSVGAQNTVICSKLAAKCLVMKAEMNGSKLGRRAKPEGALQNNDGLYDPDCDESGLFKAKQCNGTSMCWCVNTAGVRRTDKDTEITCSERVRTYWIIIELKHKAREKPYDSKSLRTALQKEITTRYQLDPKFITSILYENNVITIDLVQNSSQKTQNDVDIADVAYYFEKDVKGESLFHSKKMDLTVNGEQLDLDPGQTLIYYVDEKAPEFSMQGLK
binding (HGFR-Fc protein (human)): binds

B3: EpEX-His, wild type, expressed in HEK293T (domain or fragment, UniProt P16422 24-265)
chain: QEECVCENYKLAVNCFVNNNRQCQCTSVGAQNTVICSKLAAKCLVMKAEMNGSKLGRRAKPEGALQNNDGLYDPDCDESGLFKAKQCNGTSMCWCVNTAGVRRTDKDTEITCSERVRTYWIIIELKHKAREKPYDSKSLRTALQKEITTRYQLDPKFITSILYENNVITIDLVQNSSQKTQNDVDIADVAYYFEKDVKGESLFHSKKMDLTVNGEQLDLDPGQTLIYYVDEKAPEFSMQGLK
binding [3]: binds

B4: Epithelial cell adhesion molecule (EpCAM), endogenous (protein, UniProt P16422 24-314)
chain: QEECVCENYKLAVNCFVNNNRQCQCTSVGAQNTVICSKLAAKCLVMKAEMNGSKLGRRAKPEGALQNNDGLYDPDCDESGLFKAKQCNGTSMCWCVNTAGVRRTDKDTEITCSERVRTYWIIIELKHKAREKPYDSKSLRTALQKEITTRYQLDPKFITSILYENNVITIDLVQNSSQKTQNDVDIADVAYYFEKDVKGESLFHSKKMDLTVNGEQLDLDPGQTLIYYVDEKAPEFSMQGLKAGVIAVIVVVVIAVVAGIVVLVISRKKRMAKYEKAEIKEMGEMHRELNA
binding [4]: binds
binding [5]: binds
